Data as given in patent US12692287B2, “Polymorphic form of reduced B-nicotinamide mononucleotide calcium salt, and preparation method and use therefor” (EffePharm (Shanghai) Co., Ltd., priority 2023, dated 2026).
Some entries share one result that the patent states for a list of compounds.

Assay: Stability: solids placed openly in a stability test chamber at 25° C. and 65% RH, purity by HPLC
Type: physicochemical
Source text: NMNH is the reduced form of NMN, sensitive to air, easily oxidized, and unstable, making it unsuitable for long-term storage and market promotion. WO2023160405 (A1) reported the NMNH disodium salt compound and its crystalline and amorphous forms. […] Such stability fails to meet the shelf-life requirements for commercial products, hindering market promotion. The solid forms of NMNH calcium salt crystalline form A, crystalline form B, crystalline form C, crystalline form D, and crystalline form E were placed openly in a stability test chamber at 25° C. and 65% RH to evaluate their stability and hygroscopicity.

Time placed openly with continuously stable purity and water content, no less than 60 days:
NC(=O)C1=CN([C@@H]2O[C@H](COP(=O)(O)O)[C@@H](O)[C@H]2O)C=CC1.[Ca+2] [NMNH calcium salt Crystalline Form A, reduced β-nicotinamide mononucleotide calcium salt]
NC(=O)C1=CN([C@@H]2O[C@H](COP(=O)(O)O)[C@@H](O)[C@H]2O)C=CC1.[Ca+2] [NMNH calcium salt Crystalline Form B, reduced β-nicotinamide mononucleotide calcium salt]
NC(=O)C1=CN([C@@H]2O[C@H](COP(=O)(O)O)[C@@H](O)[C@H]2O)C=CC1.[Ca+2] [NMNH calcium salt Crystalline Form C, reduced β-nicotinamide mononucleotide calcium salt]
NC(=O)C1=CN([C@@H]2O[C@H](COP(=O)(O)O)[C@@H](O)[C@H]2O)C=CC1.[Ca+2] [NMNH calcium salt Crystalline Form D, reduced β-nicotinamide mononucleotide calcium salt]
NC(=O)C1=CN([C@@H]2O[C@H](COP(=O)(O)O)[C@@H](O)[C@H]2O)C=CC1.[Ca+2] [NMNH calcium salt Crystalline Form E, reduced β-nicotinamide mononucleotide calcium salt]
